The target in experiment [1] is heterogeneous nuclear ribonucleoprotein K (hnRNPK), endogenous in glioma cells (human (endogenous in U87 and GSCs)) (UniProt P61978). In words: co-IP; reciprocal co-immunoprecipitation of endogenous proteins from U87 glioma cells and GSCs (HF2609).
For experiment [2], the target named is N-WASP (neural WASP), endogenous in glioma cells (human (endogenous in U87 and HF2609 GSCs)) (UniProt O00401). Described as above.
Experiment [3] has the same target. In words: co-IP; lysates of U87 cells (CV cells and RTVP-1-overexpressing cells), immunoprecipitation with anti-hnRNPK antibody, blots with anti-N-WASP, anti-hnRNPK and anti-RTVP-1.

Amino acid sequences for entries named in this document (tags omitted).
UniProt O00401: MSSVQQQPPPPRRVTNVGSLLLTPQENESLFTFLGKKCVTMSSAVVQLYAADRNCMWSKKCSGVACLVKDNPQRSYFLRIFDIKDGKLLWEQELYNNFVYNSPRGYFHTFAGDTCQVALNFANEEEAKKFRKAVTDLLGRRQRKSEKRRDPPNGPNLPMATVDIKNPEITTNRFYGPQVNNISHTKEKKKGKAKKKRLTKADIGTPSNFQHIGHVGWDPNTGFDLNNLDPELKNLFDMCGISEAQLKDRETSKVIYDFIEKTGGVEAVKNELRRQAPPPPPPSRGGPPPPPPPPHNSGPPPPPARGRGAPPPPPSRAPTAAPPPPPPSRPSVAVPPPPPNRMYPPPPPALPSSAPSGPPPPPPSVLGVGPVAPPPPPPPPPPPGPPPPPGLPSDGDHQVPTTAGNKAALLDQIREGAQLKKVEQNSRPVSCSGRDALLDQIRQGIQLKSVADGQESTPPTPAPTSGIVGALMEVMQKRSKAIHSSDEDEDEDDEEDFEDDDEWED

These are yes or no findings as the source states them, for the method shown. Binding seen in cells or lysates may run through a third protein. Some binding calls cover weakened binding; strength is not graded here.

B1: RTVP-1, endogenous in glioma cells (protein, UniProt P48060 22-266)
chain: ANILPDIENEDFIKDCVRIHNKFRSEVKPTASDMLYMTWDPALAQIAKAWASNCQFSHNTRLKPPHKLHPNFTSLGENIWTGSVPIFSVSSAITNWYDEIQDYDFKTRICKKVCGHYTQVVWADSYKVGCAVQFCPKVSGFDALSNGAHFICNYGPGGNYPTWPYKRGATCSACPNNDKCLDNLCVNRQRDQVKRYYSVVYPGWPIYPRNRYTSLFLIVNSVILILSVIITILVQHKYPNLVLLD
For the molecule B1, the binding result in experiment [1] and in experiment [2] was “binds” throughout.

B2: RTVP-1 overexpressed in U87 cells (protein, UniProt P48060 22-266)
chain: B1 chain
For the molecule B2, the binding entry in experiment [3] was “binds”.

For the origin of these results see paper PMC4637324.
